Where two headings read alike, the source gives them in different places. These are yes or no findings as the source states them, for the method shown. In cells and extracts the contact can be indirect. These calls come from enrichment with a bait or labelling near it, and not all partners need be listed. For part of these data: No binding means not detected with the bait. Tags and fused reporters may be left off the sequences shown. Values belong to the molecule of their own block, whether it stands above or below them.
How the values were obtained:
[1] = target: T1, Flag-tagged OTU deubiquitinase 1 (OTUD1) (UniProt Q5VV17); assay: affinity purification with mass spectrometry; Flag-OTUD1 transfected into 293T cells; lysate immunoprecipitated with anti-Flag magnetic beads, washed three times, eluted, gel-based LC-MS/MS
T1 sequence: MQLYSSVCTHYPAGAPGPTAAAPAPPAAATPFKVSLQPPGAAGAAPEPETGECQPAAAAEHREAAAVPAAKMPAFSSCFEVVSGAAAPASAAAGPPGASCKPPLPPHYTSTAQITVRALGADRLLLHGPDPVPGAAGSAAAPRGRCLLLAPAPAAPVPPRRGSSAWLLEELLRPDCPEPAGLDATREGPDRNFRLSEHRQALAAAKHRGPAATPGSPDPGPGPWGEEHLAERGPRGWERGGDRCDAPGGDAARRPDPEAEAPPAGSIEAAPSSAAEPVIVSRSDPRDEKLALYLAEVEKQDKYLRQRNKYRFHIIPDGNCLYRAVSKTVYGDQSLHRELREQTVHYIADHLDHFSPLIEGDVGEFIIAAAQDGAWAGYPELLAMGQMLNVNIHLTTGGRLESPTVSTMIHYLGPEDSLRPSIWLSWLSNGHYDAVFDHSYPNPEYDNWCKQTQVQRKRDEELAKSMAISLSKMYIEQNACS

Sequences of proteins named here, by UniProt entry; tags and fusion partners are left off. Residues count along the entry.
UniProt O95831, residues 102-613: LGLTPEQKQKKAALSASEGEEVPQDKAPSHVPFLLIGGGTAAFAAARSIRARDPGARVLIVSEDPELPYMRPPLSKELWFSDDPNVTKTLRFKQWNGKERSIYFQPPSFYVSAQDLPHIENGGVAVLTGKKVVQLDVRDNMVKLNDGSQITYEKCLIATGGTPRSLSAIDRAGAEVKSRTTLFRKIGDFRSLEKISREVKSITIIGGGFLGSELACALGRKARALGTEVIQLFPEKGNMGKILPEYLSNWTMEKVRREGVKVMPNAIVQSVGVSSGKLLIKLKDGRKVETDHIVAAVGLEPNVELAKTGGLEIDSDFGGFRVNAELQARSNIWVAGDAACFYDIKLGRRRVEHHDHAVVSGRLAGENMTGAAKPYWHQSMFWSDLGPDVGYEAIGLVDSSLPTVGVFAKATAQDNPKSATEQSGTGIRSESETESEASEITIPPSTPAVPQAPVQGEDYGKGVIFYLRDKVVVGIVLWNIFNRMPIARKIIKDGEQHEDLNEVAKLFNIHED
UniProt Q07820: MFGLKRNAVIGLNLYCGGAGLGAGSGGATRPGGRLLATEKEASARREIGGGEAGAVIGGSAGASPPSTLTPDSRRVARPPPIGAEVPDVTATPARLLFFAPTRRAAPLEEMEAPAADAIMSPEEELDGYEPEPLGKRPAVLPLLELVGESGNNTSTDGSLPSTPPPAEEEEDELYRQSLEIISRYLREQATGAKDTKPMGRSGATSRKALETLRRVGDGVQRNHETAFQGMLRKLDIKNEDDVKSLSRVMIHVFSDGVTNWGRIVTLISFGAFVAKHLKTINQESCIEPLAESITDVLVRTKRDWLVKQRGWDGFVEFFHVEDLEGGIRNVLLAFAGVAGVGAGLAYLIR

[2] = target: T1, Flag-tagged OTU deubiquitinase 1 (OTUD1); assay: as above; remark: listed apart in the source

binding [1]: binds
Molecule: endogenous apoptosis-inducing factor (AIF), wild type (from UniProt O95831 102-613)

binding [1]: no binding
Molecule: myeloid cell leukemia sequence 1 (MCL1) (from UniProt Q07820 1-350)

binding [2]: binds
B1: DDB1 and CUL4 associated factor 10 (DCAF10), endogenous in 293T (protein, UniProt Q5QP82 1-559)
chain: MFPFGPHSPGGDGSAGAGAEEPTPHEGQAAATGPPSPLHPGADATHPPPPARSPRRPGAPSLSPAPRSGELGLPGAPESSTASAPGEPSPPSPPCRRPGPDCRAKSRGRHGLGAGLGGPGARLFGWLKERSLGRGLFVDPARDNFRTMTSLYGSIHPADSVYLSTRTHGAVFNLEYSPDGSVLTVACEQTEVLLFDPISSKHIKTLSEAHEDCVNNIRFLDNRLFATCSDDTTIALWDLRKLNTKVCTLHGHTSWVKNIEYDTNTRLLVTSGFDGNVIIWDTNRYTEDGCPHKKFFHTRFLMRMRLTPDCSKMLISTSSGYLLILHDLDLTKSLEVGSYPILRARRTTSSSDLTTSSSSSGPRVSGSPCHHSDSNSSEKHMSRASQREGVSPRNSLEVVTPEVLGESDHGNCITSLQLHPKGWATLLRCSSNSDDEECTCVYEFQEGAPVRPVSPRCSLRLTHYIEEANVGRGYIKELCFSPDGRMISSPHGYGIRLLGFDKQCSELVDCLPKEASPLRVIRSLYSHNDVVLTTKFSPTHCQIASGCLSGRVSLYQPKF
